Results are given in words; binding and its absence hold for the method and conditions named. In cells and extracts the contact can be indirect. Some results given as binding are weak or reduced against the parent protein; the word gives no strength.
How the values were obtained:
[1] = biological target: Zinc finger protein 185 (human (endogenous in Eca-109 and TE-1)) (UniProt O15231); experiment: co-IP; whole-cell lysate (RIPA buffer) of Eca-109 and TE-1 cells, nondenaturing condition, immunoprecipitated with anti-UBE3A or anti-ZNF185 and Protein G agarose, IgG as control; Western blot
[2] = biological target: Ubiquitin-protein ligase E3A (human (endogenous in Eca-109 and TE-1)) (UniProt Q05086); experiment: as above
[3] = biological target: Ubiquitin-protein ligase E3A (human (endogenous in Eca-109 and TE-1)) (UniProt Q05086); experiment: proximity ligation; Duolink in situ fluorescence on fixed Eca-109 cells with UBE3A and ZNF185 primary antibodies, confocal microscopy

Amino acid sequences for entries named in this document (tags omitted). A change or cut given only in a name is not applied to a line headed by its entry.
UniProt O15231: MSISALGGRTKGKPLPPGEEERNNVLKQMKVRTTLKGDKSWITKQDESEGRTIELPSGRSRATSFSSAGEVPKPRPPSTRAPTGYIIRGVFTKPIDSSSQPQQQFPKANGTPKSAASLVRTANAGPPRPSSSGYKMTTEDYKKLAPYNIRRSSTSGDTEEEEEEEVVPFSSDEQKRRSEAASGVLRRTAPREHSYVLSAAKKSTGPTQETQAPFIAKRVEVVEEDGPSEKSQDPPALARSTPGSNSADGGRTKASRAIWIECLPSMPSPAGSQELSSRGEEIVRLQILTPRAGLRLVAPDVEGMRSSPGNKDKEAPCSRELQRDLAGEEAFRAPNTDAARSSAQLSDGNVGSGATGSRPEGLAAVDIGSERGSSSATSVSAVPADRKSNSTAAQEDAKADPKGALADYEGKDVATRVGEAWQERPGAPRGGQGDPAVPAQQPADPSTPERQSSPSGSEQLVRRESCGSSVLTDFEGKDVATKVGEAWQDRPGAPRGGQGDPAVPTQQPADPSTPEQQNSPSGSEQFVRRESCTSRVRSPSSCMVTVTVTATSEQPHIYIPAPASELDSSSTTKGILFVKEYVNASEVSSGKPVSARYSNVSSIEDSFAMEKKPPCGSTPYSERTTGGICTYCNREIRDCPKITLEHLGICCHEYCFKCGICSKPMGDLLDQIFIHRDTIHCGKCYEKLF
UniProt Q05086: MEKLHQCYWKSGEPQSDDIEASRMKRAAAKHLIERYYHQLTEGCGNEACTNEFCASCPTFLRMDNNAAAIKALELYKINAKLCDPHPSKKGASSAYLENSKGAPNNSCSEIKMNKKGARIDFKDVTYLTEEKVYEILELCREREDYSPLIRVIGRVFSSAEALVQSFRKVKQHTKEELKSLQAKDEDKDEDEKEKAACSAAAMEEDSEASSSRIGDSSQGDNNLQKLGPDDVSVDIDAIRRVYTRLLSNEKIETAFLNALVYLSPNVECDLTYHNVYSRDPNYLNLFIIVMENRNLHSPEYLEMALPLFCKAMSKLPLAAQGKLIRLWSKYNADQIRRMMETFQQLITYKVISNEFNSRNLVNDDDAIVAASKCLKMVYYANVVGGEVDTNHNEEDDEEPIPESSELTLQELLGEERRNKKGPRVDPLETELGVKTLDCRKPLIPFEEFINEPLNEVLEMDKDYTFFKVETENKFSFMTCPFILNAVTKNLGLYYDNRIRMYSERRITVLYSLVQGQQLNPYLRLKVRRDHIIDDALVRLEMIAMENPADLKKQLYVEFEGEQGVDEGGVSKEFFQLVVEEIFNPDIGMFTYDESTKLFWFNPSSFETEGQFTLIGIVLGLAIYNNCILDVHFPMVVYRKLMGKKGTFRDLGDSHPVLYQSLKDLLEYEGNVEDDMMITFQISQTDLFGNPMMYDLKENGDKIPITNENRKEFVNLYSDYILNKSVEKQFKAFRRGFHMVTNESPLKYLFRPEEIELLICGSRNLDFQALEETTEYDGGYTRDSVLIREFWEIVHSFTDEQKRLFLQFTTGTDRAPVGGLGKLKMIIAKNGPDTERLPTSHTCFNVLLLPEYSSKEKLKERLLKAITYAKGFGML

Substance | binding [1] | binding [2] | binding [3]
Ubiquitin-protein ligase E3A (from UniProt Q05086 1-875) (enzyme) | binds | – | –
Zinc finger protein 185 (from UniProt O15231 1-689) | – | binds | binds
